# Measurements reported in the supplement of paper PMC10849652.
# Amino acid sequences for entries named in this document (tags omitted). A change or cut given only in a name is not applied to a line headed by its entry.
# UniProt Q9Y312: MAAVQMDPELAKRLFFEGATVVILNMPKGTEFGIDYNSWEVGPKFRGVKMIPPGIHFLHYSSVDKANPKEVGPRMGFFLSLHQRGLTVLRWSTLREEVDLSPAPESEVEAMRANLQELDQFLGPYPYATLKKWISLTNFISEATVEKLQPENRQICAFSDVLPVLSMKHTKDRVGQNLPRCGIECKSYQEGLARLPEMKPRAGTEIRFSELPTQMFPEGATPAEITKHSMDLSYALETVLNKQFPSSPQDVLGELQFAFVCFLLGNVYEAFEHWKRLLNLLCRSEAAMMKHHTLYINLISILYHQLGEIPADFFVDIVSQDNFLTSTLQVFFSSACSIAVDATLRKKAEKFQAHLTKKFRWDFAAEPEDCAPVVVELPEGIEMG
# UniProt P24752: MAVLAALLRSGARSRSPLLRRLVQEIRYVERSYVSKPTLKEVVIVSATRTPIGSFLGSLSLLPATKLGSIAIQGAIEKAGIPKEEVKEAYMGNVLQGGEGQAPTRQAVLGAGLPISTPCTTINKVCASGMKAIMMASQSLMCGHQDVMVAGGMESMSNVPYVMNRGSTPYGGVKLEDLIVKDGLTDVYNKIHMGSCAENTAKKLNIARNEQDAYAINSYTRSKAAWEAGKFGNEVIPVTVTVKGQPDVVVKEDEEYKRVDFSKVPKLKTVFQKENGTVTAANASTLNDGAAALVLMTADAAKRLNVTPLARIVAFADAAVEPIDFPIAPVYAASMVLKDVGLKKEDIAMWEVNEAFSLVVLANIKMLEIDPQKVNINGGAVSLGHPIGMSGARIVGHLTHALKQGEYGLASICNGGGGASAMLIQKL
# UniProt Q9H7C9: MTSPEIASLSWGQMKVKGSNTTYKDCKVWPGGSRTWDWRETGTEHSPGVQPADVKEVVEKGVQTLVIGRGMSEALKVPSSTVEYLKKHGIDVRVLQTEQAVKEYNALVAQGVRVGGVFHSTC
# UniProt P78363: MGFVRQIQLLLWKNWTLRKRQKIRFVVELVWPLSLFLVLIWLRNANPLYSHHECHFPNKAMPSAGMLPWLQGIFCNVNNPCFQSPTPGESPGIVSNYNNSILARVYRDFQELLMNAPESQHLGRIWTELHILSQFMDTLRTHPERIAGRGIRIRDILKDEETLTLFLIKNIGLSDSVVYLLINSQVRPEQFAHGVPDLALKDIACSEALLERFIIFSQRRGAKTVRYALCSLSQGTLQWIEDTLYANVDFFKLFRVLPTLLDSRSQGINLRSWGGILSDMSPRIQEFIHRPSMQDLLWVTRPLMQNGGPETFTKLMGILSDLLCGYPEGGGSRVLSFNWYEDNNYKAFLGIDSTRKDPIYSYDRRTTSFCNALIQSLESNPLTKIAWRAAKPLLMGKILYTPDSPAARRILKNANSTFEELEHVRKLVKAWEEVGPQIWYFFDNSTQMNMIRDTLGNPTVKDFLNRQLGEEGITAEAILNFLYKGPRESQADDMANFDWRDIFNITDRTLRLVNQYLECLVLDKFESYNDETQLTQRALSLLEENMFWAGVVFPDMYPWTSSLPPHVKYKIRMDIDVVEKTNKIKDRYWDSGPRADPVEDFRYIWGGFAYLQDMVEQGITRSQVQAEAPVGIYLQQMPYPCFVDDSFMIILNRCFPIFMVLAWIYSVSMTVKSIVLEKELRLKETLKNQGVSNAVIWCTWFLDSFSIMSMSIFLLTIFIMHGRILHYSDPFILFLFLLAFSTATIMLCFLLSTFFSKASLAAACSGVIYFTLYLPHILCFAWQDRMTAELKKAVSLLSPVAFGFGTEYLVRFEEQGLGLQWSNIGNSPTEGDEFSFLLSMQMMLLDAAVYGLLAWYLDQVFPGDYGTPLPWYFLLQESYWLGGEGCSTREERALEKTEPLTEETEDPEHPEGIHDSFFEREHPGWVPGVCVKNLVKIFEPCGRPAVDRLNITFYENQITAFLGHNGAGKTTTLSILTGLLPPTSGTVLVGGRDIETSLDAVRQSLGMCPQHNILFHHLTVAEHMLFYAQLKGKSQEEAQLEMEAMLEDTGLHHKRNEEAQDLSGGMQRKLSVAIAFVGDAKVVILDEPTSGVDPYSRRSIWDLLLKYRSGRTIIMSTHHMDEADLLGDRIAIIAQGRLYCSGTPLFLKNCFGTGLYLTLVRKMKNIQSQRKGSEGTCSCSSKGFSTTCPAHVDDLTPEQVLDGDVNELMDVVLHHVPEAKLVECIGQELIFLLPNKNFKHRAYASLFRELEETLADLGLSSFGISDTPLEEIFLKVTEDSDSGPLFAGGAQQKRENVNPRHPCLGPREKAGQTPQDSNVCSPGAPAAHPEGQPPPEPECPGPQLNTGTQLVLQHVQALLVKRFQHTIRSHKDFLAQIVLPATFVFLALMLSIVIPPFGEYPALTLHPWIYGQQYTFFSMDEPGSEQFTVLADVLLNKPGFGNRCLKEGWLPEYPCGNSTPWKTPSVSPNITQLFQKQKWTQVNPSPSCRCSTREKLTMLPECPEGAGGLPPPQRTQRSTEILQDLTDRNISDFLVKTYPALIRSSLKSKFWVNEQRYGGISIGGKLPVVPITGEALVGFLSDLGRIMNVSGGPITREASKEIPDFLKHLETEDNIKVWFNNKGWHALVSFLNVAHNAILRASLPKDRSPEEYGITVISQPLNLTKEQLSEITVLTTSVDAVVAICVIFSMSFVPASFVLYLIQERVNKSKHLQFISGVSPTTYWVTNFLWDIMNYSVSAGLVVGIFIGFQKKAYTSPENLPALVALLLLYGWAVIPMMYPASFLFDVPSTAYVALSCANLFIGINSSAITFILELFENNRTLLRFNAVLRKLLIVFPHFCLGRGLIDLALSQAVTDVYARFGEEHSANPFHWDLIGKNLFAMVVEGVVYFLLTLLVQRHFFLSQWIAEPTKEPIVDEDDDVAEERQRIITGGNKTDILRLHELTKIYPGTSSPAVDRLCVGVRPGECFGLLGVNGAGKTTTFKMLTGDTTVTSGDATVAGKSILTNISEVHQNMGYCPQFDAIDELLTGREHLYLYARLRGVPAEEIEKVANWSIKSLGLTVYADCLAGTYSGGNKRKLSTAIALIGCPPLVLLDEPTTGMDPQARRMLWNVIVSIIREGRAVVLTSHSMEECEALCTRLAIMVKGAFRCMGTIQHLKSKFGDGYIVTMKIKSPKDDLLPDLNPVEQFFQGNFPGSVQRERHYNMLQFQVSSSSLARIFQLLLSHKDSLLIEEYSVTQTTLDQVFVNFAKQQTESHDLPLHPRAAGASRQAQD
# UniProt Q8NE71: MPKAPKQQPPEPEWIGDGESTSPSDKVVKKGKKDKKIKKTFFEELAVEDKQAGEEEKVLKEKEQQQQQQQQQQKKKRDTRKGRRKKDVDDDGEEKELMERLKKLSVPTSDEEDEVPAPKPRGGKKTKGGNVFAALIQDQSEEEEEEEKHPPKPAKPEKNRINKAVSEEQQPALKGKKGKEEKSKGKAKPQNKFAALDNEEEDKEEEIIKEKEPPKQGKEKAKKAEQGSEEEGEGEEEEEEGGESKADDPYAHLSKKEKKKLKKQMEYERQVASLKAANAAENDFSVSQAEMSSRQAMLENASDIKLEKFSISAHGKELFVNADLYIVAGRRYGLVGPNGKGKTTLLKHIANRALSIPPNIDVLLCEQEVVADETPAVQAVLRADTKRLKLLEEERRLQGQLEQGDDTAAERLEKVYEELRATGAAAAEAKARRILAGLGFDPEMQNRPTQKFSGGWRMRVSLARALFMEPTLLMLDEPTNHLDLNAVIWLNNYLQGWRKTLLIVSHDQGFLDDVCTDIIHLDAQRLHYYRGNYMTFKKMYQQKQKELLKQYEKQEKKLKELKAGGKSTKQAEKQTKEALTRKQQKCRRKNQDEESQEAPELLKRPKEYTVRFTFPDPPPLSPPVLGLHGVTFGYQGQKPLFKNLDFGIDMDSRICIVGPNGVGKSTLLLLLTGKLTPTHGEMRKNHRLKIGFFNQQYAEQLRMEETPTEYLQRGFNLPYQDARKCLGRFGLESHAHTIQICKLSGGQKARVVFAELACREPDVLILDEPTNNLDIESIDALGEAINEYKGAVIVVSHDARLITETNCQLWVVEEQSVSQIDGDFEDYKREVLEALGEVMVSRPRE
# UniProt O15439: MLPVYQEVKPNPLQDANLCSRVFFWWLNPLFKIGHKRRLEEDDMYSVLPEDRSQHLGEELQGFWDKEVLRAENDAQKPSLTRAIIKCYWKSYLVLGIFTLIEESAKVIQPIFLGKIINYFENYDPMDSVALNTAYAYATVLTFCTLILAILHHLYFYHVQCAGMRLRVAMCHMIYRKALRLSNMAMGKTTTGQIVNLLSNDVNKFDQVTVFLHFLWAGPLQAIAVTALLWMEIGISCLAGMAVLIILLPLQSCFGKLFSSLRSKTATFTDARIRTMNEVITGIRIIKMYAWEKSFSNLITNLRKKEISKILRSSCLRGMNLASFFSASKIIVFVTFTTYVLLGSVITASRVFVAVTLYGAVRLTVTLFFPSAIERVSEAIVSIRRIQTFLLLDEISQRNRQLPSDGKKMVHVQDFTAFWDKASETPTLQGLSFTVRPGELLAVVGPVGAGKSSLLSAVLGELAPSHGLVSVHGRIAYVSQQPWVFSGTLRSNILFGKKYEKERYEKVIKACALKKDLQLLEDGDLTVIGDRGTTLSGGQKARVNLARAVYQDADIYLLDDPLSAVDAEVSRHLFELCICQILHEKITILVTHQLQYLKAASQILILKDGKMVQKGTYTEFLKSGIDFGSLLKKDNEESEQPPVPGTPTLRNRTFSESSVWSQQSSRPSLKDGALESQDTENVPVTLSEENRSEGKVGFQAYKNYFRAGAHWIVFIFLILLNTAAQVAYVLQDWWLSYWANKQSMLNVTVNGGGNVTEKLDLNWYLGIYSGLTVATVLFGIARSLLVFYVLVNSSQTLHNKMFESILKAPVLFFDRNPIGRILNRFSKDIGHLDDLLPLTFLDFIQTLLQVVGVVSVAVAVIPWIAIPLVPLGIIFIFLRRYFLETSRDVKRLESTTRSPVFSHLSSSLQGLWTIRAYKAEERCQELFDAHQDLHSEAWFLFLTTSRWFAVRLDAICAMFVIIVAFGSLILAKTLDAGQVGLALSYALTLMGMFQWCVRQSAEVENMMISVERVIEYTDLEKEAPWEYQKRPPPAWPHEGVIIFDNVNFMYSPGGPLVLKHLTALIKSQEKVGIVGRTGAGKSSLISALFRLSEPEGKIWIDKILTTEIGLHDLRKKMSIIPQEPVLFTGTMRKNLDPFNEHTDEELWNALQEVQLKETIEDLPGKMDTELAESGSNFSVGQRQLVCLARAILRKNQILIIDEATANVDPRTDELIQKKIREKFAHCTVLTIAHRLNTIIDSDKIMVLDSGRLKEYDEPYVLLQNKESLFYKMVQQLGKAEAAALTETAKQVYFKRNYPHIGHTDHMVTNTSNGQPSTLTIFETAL
# UniProt P11310: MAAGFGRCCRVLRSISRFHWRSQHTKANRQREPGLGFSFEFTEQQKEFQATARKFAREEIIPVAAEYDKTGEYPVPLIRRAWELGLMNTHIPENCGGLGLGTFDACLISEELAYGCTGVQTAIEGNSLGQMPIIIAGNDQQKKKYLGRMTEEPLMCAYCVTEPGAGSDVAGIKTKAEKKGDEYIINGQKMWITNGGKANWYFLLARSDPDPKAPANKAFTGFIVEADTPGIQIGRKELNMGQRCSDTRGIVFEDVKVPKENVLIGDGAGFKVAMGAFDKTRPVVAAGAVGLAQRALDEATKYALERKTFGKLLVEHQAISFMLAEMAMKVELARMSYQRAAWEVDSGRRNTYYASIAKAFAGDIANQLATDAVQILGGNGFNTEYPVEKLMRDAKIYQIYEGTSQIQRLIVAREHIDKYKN
# UniProt Q9NPJ3: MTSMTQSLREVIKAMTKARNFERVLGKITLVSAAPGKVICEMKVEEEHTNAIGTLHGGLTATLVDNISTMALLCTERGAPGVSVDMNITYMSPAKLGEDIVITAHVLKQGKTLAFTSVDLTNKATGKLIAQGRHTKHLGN
# UniProt Q9NUJ1: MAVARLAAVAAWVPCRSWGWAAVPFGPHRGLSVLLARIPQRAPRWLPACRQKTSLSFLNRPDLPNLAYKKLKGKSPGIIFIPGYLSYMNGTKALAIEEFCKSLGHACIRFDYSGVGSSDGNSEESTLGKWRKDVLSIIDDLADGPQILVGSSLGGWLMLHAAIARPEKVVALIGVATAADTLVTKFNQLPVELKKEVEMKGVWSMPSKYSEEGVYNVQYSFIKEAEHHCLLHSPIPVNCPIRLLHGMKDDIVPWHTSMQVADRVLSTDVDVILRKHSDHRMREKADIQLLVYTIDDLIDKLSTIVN
# UniProt Q9ULW3: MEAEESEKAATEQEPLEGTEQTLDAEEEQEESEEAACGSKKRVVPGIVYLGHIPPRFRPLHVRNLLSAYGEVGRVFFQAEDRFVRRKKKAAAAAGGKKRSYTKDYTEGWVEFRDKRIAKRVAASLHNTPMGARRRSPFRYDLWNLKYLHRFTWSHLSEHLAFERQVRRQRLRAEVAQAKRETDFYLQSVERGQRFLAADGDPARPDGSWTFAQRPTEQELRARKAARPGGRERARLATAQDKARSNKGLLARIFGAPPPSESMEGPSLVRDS
# The other results are listed elsewhere or left out.
# Assays:
# Assay in all cases: log2 fold change, soluble protein after heating vs DMSO (PISA); higher = thermal stabilisation; K562 lysate, 10 uM; active = over 0.2 and 3.5 SD of the protein, either way, in both replicates (recomputed)
# ibrutinib = compound: C=CC(=O)N1CCC[C@@H](n2nc(-c3ccc(Oc4ccccc4)cc3)c3c(N)ncnc32)C1 [ibrutinib]
# Outline: (§1)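 Dounce homogenisation of K562 pellets in PBS pH 7.4 with 1 mM MgCl2 produced a crude extract, used at 1 mg/mL protein. Exposure to 10 μM compound lasted 30 min, and aliquots were then heated for 3 min across 48°C-58°C, pooled and brought to 0.5% NP-40 at 4°C. The supernatant after 21,000xg for 90 min was quantified by TMTpro 16plex LC-MS/MS with channel sums equalised. Duplicate values are given as log-two fold change in thermal stability relative to solvent controls.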
# [1] = compound: CC(=O)c1cnc2ccc(-c3cc(Cl)c(O)c(Cl)c3)nc2c1N[C@H]1CC[C@H](CN(C)C)CC1
# Outline: as §1
# ralimetinib = compound: CC(C)(C)Cn1c(N)nc2ccc(-c3[nH]c(C(C)(C)C)nc3-c3ccc(F)cc3)nc21 [ralimetinib]
# Outline: as §1
# [2] = compound: CC(C)(O)CC(=O)NCCn1ccc2ncnc(Nc3ccc(Oc4cccc(C(F)(F)F)c4)c(Cl)c3)c21
# Outline: as §1
# [3] = compound: CC(C)C1=C2N=C(C=C(N2N=C1)NCC3=CC=CC=C3)NCCCCCCN
# Outline: as §1
# [4] = compound: CC1=C(C(CC(=O)N1)C2=CC=C(C=C2)C(F)(F)F)C(=O)NC3=C(C=C4C(=C3)C=NN4)F
# Outline: as §1
# [5] = compound: CC1=C(C2=C(C=C1)C(=O)C3=CC=CC=C3N2CCCN)C
# Outline: as §1
# [6] = compound: CC1=C(C=C(C=C1)NC(=O)C2=CC(=CC=C2)C(C)(C)C#N)NC3=CC4=C(C=C3)N=CN(C4=O)C
# Outline: as §1
# [7] = compound: CC1=C(C=C(C=C1)NC(=O)C2=CC(=CC=C2)N(C)C)NC(=O)C3=CC=C(C=C3)O
# Outline: as §1
# [8] = compound: CC1=CC=C(C=C1)SC2=C3C=C(SC3=CN=C2)C(=O)N
# Outline: as §1
Target,log2 fold change (ibrutinib),log2 fold change [1],log2 fold change (ralimetinib),log2 fold change [2],log2 fold change [3],log2 fold change [4],log2 fold change [5],log2 fold change [6],log2 fold change [7],log2 fold change [8]
AAR2 (UniProt Q9Y312),inactive: 0.024,inactive: -0.005,inactive: -0.007,inactive: -0.033,inactive: -0.008,inactive: -0.005,inactive: -0.022,inactive: -0.021,inactive: 0.012,inactive: 0
ABCB10 (UniProt Q9NRK6),inactive: -0.036,inactive: 0.015,inactive: -0.006,inactive: 0.023,inactive: -0.041,inactive: -0.011,inactive: 0.012,inactive: 0.031,inactive: 0.001,inactive: 0.005
ACAT1 (UniProt P24752),inactive: 0.002,inactive: 0.005,inactive: 0.003,inactive: 0.002,inactive: -0.002,inactive: 0.001,inactive: 0.034,inactive: -0.013,inactive: -0.007,inactive: 0.015
AAMDC (UniProt Q9H7C9),inactive: 0.044,inactive: -0.046,inactive: 0.035,inactive: -0.024,inactive: 0.015,inactive: -0.002,inactive: 0.029,inactive: 0.055,inactive: 0.006,inactive: -0.014
ACACB (UniProt O00763),inactive: 0.051,inactive: 0.018,inactive: 0.069,inactive: 0.032,inactive: 0.014,inactive: -0.036,inactive: 0.015,inactive: 0.021,inactive: 0.052,inactive: 0.022
ABCA4 (UniProt P78363),inactive: 0.028,inactive: 0.067,inactive: -0.008,inactive: -0.072,inactive: -0.055,inactive: -0.054,inactive: -0.109,inactive: 0.119,inactive: 0.01,inactive: -0.033
AATF (UniProt Q9NY61),inactive: 0.04,inactive: -0.045,inactive: 0.027,inactive: -0.012,inactive: 0.019,inactive: -0.02,inactive: -0.027,inactive: -0.022,inactive: 0.017,inactive: -0.058
ABCC1 (UniProt P33527),inactive: 0.052,inactive: 0.111,inactive: -0.014,inactive: -0.021,inactive: 0.018,inactive: 0.006,inactive: -0.012,inactive: 0.015,inactive: -0.006,inactive: -0.042
ABCF1 (UniProt Q8NE71),inactive: -0.01,inactive: -0.009,inactive: 0.01,inactive: 0.005,inactive: -0.005,inactive: -0.003,inactive: -0.023,inactive: 0.008,inactive: 0.046,inactive: 0.023
ABCB8 (UniProt Q9NUT2),inactive: 0.008,inactive: 0.014,inactive: 0.02,inactive: -0.046,inactive: 0.042,inactive: 0.062,inactive: -0.05,inactive: -0.028,inactive: 0.014,inactive: -0.027
ACAA1 (UniProt P09110),inactive: 0.046,inactive: -0.012,inactive: -0.054,inactive: -0.003,inactive: 0,inactive: -0.02,inactive: -0.016,inactive: 0.044,inactive: 0.001,inactive: -0.007
AACS (UniProt Q86V21),inactive: -0.024,inactive: -0.015,inactive: 0.06,inactive: -0.046,inactive: -0.014,inactive: 0.02,inactive: -0.027,inactive: -0.04,inactive: 0.056,inactive: 0.008
ABCC4 (UniProt O15439),inactive: 0.012,inactive: -0.003,inactive: 0.019,inactive: -0.027,inactive: -0.013,inactive: -0.075,inactive: -0.002,inactive: 0.031,inactive: -0.014,inactive: -0.023
ABL1 isoform 2 (UniProt P00519),inactive: 0.157,inactive: 0.077,inactive: 0.019,inactive: 0.024,inactive: -0.017,inactive: -0.014,inactive: -0.01,inactive: 0.048,inactive: 0.011,inactive: -0.043
ABCF2 isoform 2 (UniProt Q9UG63),inactive: -0.012,inactive: 0.013,inactive: 0.059,inactive: 0.003,inactive: 0.01,inactive: 0.007,inactive: -0.008,inactive: -0.013,inactive: 0.021,inactive: 0.012
ACCS (UniProt Q96QU6),inactive: -0.028,inactive: 0.03,inactive: -0.094,inactive: -0.146,inactive: -0.024,inactive: -0.062,inactive: -0.141,inactive: 0.091,inactive: 0.088,inactive: -0.041
ACAA2 (UniProt P42765),inactive: 0.026,inactive: -0.006,inactive: 0.011,inactive: -0.016,inactive: 0.009,inactive: -0.012,inactive: -0.024,inactive: -0.032,inactive: 0.011,inactive: -0.017
ACADM isoform 2 (UniProt P11310),inactive: 0.151,inactive: 0.026,inactive: -0.015,inactive: -0.047,active: 0.396,inactive: -0.041,inactive: -0.004,inactive: -0.055,inactive: -0.019,inactive: 0.046
ABCB6 (UniProt Q9NP58),inactive: 0.022,inactive: 0.04,inactive: 0.01,inactive: -0.015,inactive: -0.047,inactive: -0.023,inactive: -0.082,inactive: 0.02,inactive: -0.042,inactive: -0.011
"A0A096LPI6, A0A096LPI6",inactive: 0.017,inactive: -0.009,inactive: 0.021,inactive: -0.009,inactive: 0.003,inactive: -0.019,inactive: -0.008,inactive: -0.004,inactive: -0.018,inactive: -0.019
"AAK1, A0A096LP25",inactive: -0.022,inactive: 0.385,inactive: -0.031,inactive: -0.03,inactive: 0.065,inactive: -0.072,inactive: -0.056,inactive: -0.021,inactive: -0.001,inactive: 0.045
ACBD3 (UniProt Q9H3P7),inactive: -0.005,inactive: -0.007,inactive: 0.009,inactive: -0.007,inactive: 0.016,inactive: 0.001,inactive: 0,inactive: 0.002,inactive: 0.018,inactive: -0.019
ABCB7 isoform 2 (UniProt O75027),inactive: -0.135,inactive: 0.062,inactive: -0.051,inactive: -0.071,inactive: -0.067,inactive: -0.002,inactive: 0.004,inactive: -0.019,inactive: 0.001,inactive: 0.006
ACOT13 (UniProt Q9NPJ3),inactive: -0.056,inactive: 0.031,inactive: -0.04,inactive: -0.048,inactive: 0.006,inactive: -0.022,inactive: -0.021,inactive: 0.029,inactive: -0.027,inactive: -0.012
ABHD10 (UniProt Q9NUJ1),inactive: -0.011,inactive: 0.01,inactive: -0.034,inactive: 0.031,inactive: 0,inactive: -0.01,inactive: -0.04,inactive: -0.007,inactive: 0.001,inactive: 0.006
ABT1 (UniProt Q9ULW3),inactive: -0.016,inactive: 0.091,inactive: 0.019,inactive: -0.041,inactive: 0.012,inactive: -0.025,inactive: -0.048,inactive: 0.025,inactive: 0.033,inactive: 0.088
ABCE1 (UniProt P61221),inactive: -0.033,inactive: 0.023,inactive: -0.008,inactive: -0.005,inactive: -0.016,inactive: -0.026,inactive: 0.017,inactive: -0.009,inactive: -0.008,inactive: -0.002
ABHD11 (UniProt Q8NFV4),inactive: -0.012,inactive: 0.057,inactive: -0.04,inactive: -0.048,inactive: -0.2,inactive: 0.018,inactive: -0.241,inactive: -0.013,inactive: 0,inactive: -0.017
A2M (UniProt P01023),inactive: -0.003,inactive: -0.011,inactive: -0.018,inactive: -0.066,inactive: 0.008,inactive: 0.043,inactive: -0.013,inactive: -0.026,inactive: 0.023,inactive: -0.022
ABHD17A isoform 2 (UniProt Q96GS6),inactive: -0.03,inactive: 0.011,inactive: 0.039,inactive: -0.035,inactive: 0.032,inactive: -0.042,inactive: -0.065,inactive: -0.023,inactive: -0.097,inactive: -0.098

# Copied from the list:
# Value of ACAT1 (UniProt P24752) under log2 fold change [6]: inactive: -0.013
# Value of A0A096LPI6, A0A096LPI6 under log2 fold change [3]: inactive: 0.003
